Experimental data: PubChem BioAssay AID743121 (NCATS, 2013)
The whole screen tested about 26,000 reagents; this is a part drawn at random. 167 of all reagents (0.63%) were called active. 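Calls are per gene from RSA p-values that are not deposited; an individual active-marked siRNA can sensitise only weakly.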 A number with no mark means an inactive call.

Aim: 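Genes whose silencing strengthens cell killing by camptothecin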 (primary screen)
Cell system: MDA-MB-231 cells, a human breast cancer line
Knock-down reagent: single siRNA against human genes, 20 nM siRNA (0.8 pmol per well)
Timing: 120 h (drug added 48 h after transfection, read 72 h later)
Treatment: camptothecin 20 nM (about EC30) for 72 h; vehicle 0.1% DMSO in parallel plates
Measured: 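CellTiter-Glo ATP signal, scaled to control siRNA as percent viability; sensitisation given as log2 of untreated divided by camptothecin-treated viability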
Reading the numbers: log2 vehicle/camptothecin viability: higher = stronger sensitisation to camptothecin; viability with camptothecin and viability without drug: higher = more viable cells
Call rule: 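Each gene scored by redundant siRNA activity (RSA) over its individual siRNA ratios; a gene is called active at p < 0.001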

Gene,PubChem SID,log2 vehicle/camptothecin viability,viability with camptothecin (% of control),viability without drug (% of control)
ERAP2,SID164501504,0.742,31.9,53.4
ERAP2,SID164501506,-0.403,86.8,65.6
ERAP2,SID164501507,-0.0478,91.2,88.2
ERAP2,SID164501508,-0.461,78.2,56.8
CCNT2,SID164356979,0.135,69.2,76
CCNT2,SID164356982,0.0121,70.5,71.1
CCNT2,SID164356986,-0.0722,18.4,17.5
OGT,SID164397831,-0.145,111,100
OGT,SID164397833,0.0951,71.5,76.3
OGT,SID164397834,-0.536,82.5,56.9
OGT,SID164397835,-0.401,80.8,61.2
CEP41,SID164554201,-0.425,74,55.1
CEP41,SID164554202,-0.169,85.2,75.8
CEP41,SID164554203,-0.19,98.1,86
CEP41,SID164554204,0.0331,86.2,88.2
PNLIPRP3,SID164565792,-0.202,14.6,12.7
PNLIPRP3,SID164565793,-0.0579,60.5,58.1
PNLIPRP3,SID164565795,-0.0121,75.4,74.8
PNLIPRP3,SID164565798,-0.158,95.9,86
GALR3,SID164397894,-0.479,63,45.2
GALR3,SID164397897,-0.35,32.7,25.7
GALR3,SID164397898,-0.288,93.4,76.5
GALR3,SID164397899,-0.299,116,94.1
SLC9A7,SID164546225,0.0379,103,106
SLC9A7,SID164546231,0.586,43.2,64.8
SLC9A7,SID164546232,-0.0989,97.4,91
PANK4,SID164483740,-0.146,76.9,69.5
PANK4,SID164483741,-0.184,53.7,47.2
PANK4,SID164483743,0.884,41.3,76.2
PANK4,SID164483746,-0.0895,103,96.7
BAG6,SID164395805,-0.38,102,78.4
BAG6,SID164395807,0.00309,76,76.1
BAG6,SID164395808,-0.381,90.5,69.5
BAG6,SID164395809,0.174,55.8,63
FPR3,SID164365352,-0.338,100,79.4
FPR3,SID164365353,1.41,18.5,49
FPR3,SID164365357,-0.416,106,79.4
FPR3,SID164365358,-0.343,94.5,74.5
OXGR1,SID164462923,-0.243,54.4,46
OXGR1,SID164462924,-0.197,108,94
OXGR1,SID164462927,-0.221,81.1,69.5
OXGR1,SID164462928,1.23,30.7,72
EPHB3,SID164363502,-0.1,97.4,90.9
EPHB3,SID164363503,-0.407,117,88.1
EPHB3,SID164363505,-0.011,90.3,89.6
EPHB3,SID164363509,-0.355,47.5,37.1

Reformatted: entries from further up.
{"Gene": "CCNT2", "PubChem SID": "SID164356982", "log2 vehicle/camptothecin viability": 0.0121, "viability with camptothecin (% of control)": 70.5, "viability without drug (% of control)": 71.1}
{"Gene": "CCNT2", "PubChem SID": "SID164356986", "log2 vehicle/camptothecin viability": -0.0722, "viability with camptothecin (% of control)": 18.4, "viability without drug (% of control)": 17.5}
{"Gene": "OGT", "PubChem SID": "SID164397831", "log2 vehicle/camptothecin viability": -0.145, "viability with camptothecin (% of control)": 111, "viability without drug (% of control)": 100}
{"Gene": "OGT", "PubChem SID": "SID164397833", "log2 vehicle/camptothecin viability": 0.0951, "viability with camptothecin (% of control)": 71.5, "viability without drug (% of control)": 76.3}
{"Gene": "OGT", "PubChem SID": "SID164397834", "log2 vehicle/camptothecin viability": -0.536, "viability with camptothecin (% of control)": 82.5, "viability without drug (% of control)": 56.9}
